According to PubChem BioAssay AID248 (DTP/NCI, 2004):
The list shows only some results of the screen, not a fair sample: it is rich in T/C values a quarter to a half above the control, in often repeated tests (any T/C) and in doses without a T/C. Further doses and runs are listed elsewhere. T/C gives the treated animals as a percentage of the vehicle group. Some doses have a count of surviving animals in place of a T/C: the source holds a T/C of zero for them, seemingly a mark for toxic or unscored doses. Some doses without a T/C left all or most animals alive at the check, yet need not have been tolerated: the source hardly ever lists a survival T/C far under the control, and the zero likely stands for such cases as well. Counts of survivors are from the toxicity check (mostly the fifth day) where no day follows; animals may have died later. Schedule codes are those of the source, taken here to give the interval after Q, in days (D) or hours (H), and the number of doses after X. Some entries were tested several times; the values are given in rising order. Some schedules carry Z or #; the key to these is not given. Where survival is the endpoint, this PubChem deposit counts one and a half times the control or more as active, and values a quarter to a half above the control carry no call in these data; other NCI protocols may use other cut-offs. Some T/C values carry the count of animals alive at the toxicity check (mostly the fifth day); without a count, all were alive then.

Test system: L1210 leukemia ip in BDF1 mice, survival T/C
Experiment: NCI In Vivo Anticancer Drug Screen. Data for tumor model L1210 Leukemia (intraperitoneal) in B6D2F1 (BDF1) mice
Conditions: T/C endpoint: mean survival time, higher T/C = longer survival
[1] = dose: 75.0 mg/kg/injection, schedule: Q04DX003 (ip), vehicle: saline
[2] = dose: 200.0 mg/kg/injection, schedule: Q01DX001 (ip), vehicle: saline
[3] = dose: 400.0 mg/kg/injection, schedule: Q01DX001 (ip), vehicle: saline
[4] = dose: 50.0 mg/kg/injection, schedule: Q01DX009 (ip), vehicle: Klucel (hydroxypropylcellulose) (HPC)
[5] = dose: 100.0 mg/kg/injection, schedule: Q01DX009 (ip), vehicle: Klucel (hydroxypropylcellulose) (HPC)
[6] = dose: 150.0 mg/kg/injection, schedule: Q01DX001 (ip), vehicle: saline
[7] = dose: 300.0 mg/kg/injection, schedule: Q01DX001 (ip), vehicle: saline
[8] = dose: 400.0 mg/kg/injection, schedule: Q04DX003 (ip), vehicle: saline with Tween-80
[9] = dose: 400.0 mg/kg/injection, schedule: Q04DX003 (ip), vehicle: Klucel (hydroxypropylcellulose) (HPC)
[10] = dose: 200.0 mg/kg/injection, schedule: Q01DX009 (ip), vehicle: gum acacia

**Q.** With `c1nc(SC2=NCCN2)c2[nH]cnc2n1` as the compound, how does the T/C (dose: 10.5 mg/kg/injection, schedule: Q01DX Z (ip), vehicle: saline) read?
**A.** 128 % of control

**Q.** And the T/C (dose: 21.0 mg/kg/injection, schedule: Q01DX Z (ip), vehicle: saline)?
**A.** 131 and 132 % of control

**Q.** And the T/C (dose: 21.0 mg/kg/injection, schedule: Q01DX Z (oral), vehicle: saline)?
**A.** 126 % of control

**Q.** And the T/C (dose: 34.0 mg/kg/injection, schedule: Q01DX009 (ip), vehicle: saline)?
**A.** 126 % of control

**Q.** And the T/C (dose: 42.0 mg/kg/injection, schedule: Q01DX Z (oral), vehicle: saline)?
**A.** 136 and 136 % of control [5 of 6 alive]

**Q.** And the T/C (dose: 50.0 mg/kg/injection, schedule: Q04DX003 (ip), vehicle: saline)?
**A.** 125 % of control

**Q.** What about the survivor count (dose: 75.0 mg/kg/injection, schedule: Q01DX009 (ip), vehicle: saline) of the same compound?
**A.** 1 of 6

**Q.** What about the T/C [1] of the same compound?
**A.** 146 % of control [5 of 6 alive]

**Q.** And the survivor count [1]?
**A.** 1 of 6

**Q.** What about the survivor count (dose: 80.0 mg/kg/injection, schedule: Q01DX001 (ip), vehicle: saline) of the same compound?
**A.** 0 of 4

**Q.** And the survivor count (dose: 84.0 mg/kg/injection, schedule: Q01DX Z (ip), vehicle: saline)?
**A.** 2 of 6

**Q.** And the T/C (dose: 84.0 mg/kg/injection, schedule: Q01DX Z (oral), vehicle: saline)?
**A.** 147 % of control

**Q.** And the survivor count (dose: 100.0 mg/kg/injection, schedule: Q01DX001 (ip), vehicle: saline)?
**A.** 1 of 4

**Q.** And the survivor count (dose: 100.0 mg/kg/injection, schedule: Q04DX003 (ip), vehicle: saline)?
**A.** 0 of 6

**Q.** And the survivor count (dose: 168.0 mg/kg/injection, schedule: Q01DX Z (ip), vehicle: saline)?
**A.** 0 of 6

**Q.** What about the survivor count [2] of the same compound?
**A.** 0 of 4

**Q.** What about the survivor count (dose: 200.0 mg/kg/injection, schedule: Q04DX003 (ip), vehicle: saline) of the same compound?
**A.** 0 of 6

**Q.** What about the survivor count (dose: 336.0 mg/kg/injection, schedule: Q01DX Z (oral), vehicle: saline) of the same compound?
**A.** 0 of 6

**Q.** And the survivor count [3]?
**A.** 0 of 4

**Q.** And the survivor count (dose: 400.0 mg/kg/injection, schedule: Q04DX003 (ip), vehicle: saline)?
**A.** 0 of 6

**Q.** With `CCOC(=O)CCC(NC(=O)c1cc(Cl)c(N(CC)Cc2cnc3nc(N)nc(N)c3n2)c(Cl)c1)C(=O)OCC` (configuration not stated) as the compound, how does the T/C [4] read?
**A.** 137 % of control

**Q.** And the survivor count [5]?
**A.** 3 of 3

**Q.** What does the source list for `CCC(CC)C1CC[N-]CC1.CCC(CC)C1CC[N-]CC1.N#C[S-].N#C[S-].[Cu]`?
**A.** survivor count [6]: 0 of 6; survivor count [7]: 0 of 6

**Q.** For `O=C(CCl)Nc1ccccc1S(=O)(=O)F`, which survivor count (dose: 75.0 mg/kg/injection, schedule: Q01DX009 (ip), vehicle: carboxymethylcellulose (CMC)) is on record?
**A.** 5 of 6

**Q.** And the survivor count (dose: 300.0 mg/kg/injection, schedule: Q04DX003 (ip), vehicle: carboxymethylcellulose (CMC))?
**A.** 0 of 6

**Q.** How did the T/C (dose: 25.0 mg/kg/injection, schedule: Q01DX009 (ip), vehicle: saline) turn out when `CCN1C(=O)CC2(CCN(C)CC2)C1=O` was run?
**A.** 130 % of control [5 of 6 alive]

**Q.** And the survivor count (dose: 200.0 mg/kg/injection, schedule: Q01DX009 (ip), vehicle: saline)?
**A.** 0 of 6 and 6 of 6

**Q.** What about the survivor count (dose: 400.0 mg/kg/injection, schedule: Q01DX009 (ip), vehicle: saline) of the same compound?
**A.** 0 of 6

**Q.** How did the survivor count [8] turn out when `CCCCC(CC)C1NCCO1` (configuration not stated) was run?
**A.** 4 of 6

**Q.** With `Cc1cccc(Cl)c1NC(=O)Cn1cccc1` as the compound, how does the survivor count [9] read?
**A.** 1 of 6

**Q.** How did the survivor count [3] turn out when `NC(C(=O)O)c1ccc(F)cc1` (configuration not stated) was run?
**A.** 0 of 4

**Q.** For `Oc1ccc2ccccc2c1/C=C/c1ccncc1`, which survivor count [5] is on record?
**A.** 4 of 6

**Q.** What about the survivor count (dose: 200.0 mg/kg/injection, schedule: Q01DX001 (ip), vehicle: Klucel (hydroxypropylcellulose) (HPC)) of the same compound?
**A.** 4 of 6

**Q.** What about the survivor count (dose: 200.0 mg/kg/injection, schedule: Q01DX009 (ip), vehicle: Klucel (hydroxypropylcellulose) (HPC)) of the same compound?
**A.** 0 of 6

**Q.** What about the survivor count (dose: 400.0 mg/kg/injection, schedule: Q01DX001 (ip), vehicle: Klucel (hydroxypropylcellulose) (HPC)) of the same compound?
**A.** 0 of 6

**Q.** With `CCC(C)SC1=NC(N)=NC2=NC=NC21` (configuration not stated) as the compound, how does the T/C (dose: 200.0 mg/kg/injection, schedule: Q04DX003 (ip), vehicle: carboxymethylcellulose (CMC)) read?
**A.** 140 % of control

**Q.** What does the source list for `CCCCN1CC2CCCC1O2` (configuration not stated)?
**A.** survivor count [2]: 0 of 4; survivor count [3]: 0 of 4

**Q.** How did the survivor count (dose: 200.0 mg/kg/injection, schedule: Q04DX003 (ip), vehicle: Klucel (hydroxypropylcellulose) (HPC)) turn out when `O=C1CC2C3Nc4ccccc4C3CCN2C2=C1CC(OC(=O)c1ccccc1)CC2` (configuration not stated) was run?
**A.** 6 of 6

**Q.** What about the survivor count [9] of the same compound?
**A.** 5 of 6

**Q.** For `O=c1[nH]cc(Br)c2sccc12`, which survivor count [8] is on record?
**A.** 6 of 6

**Q.** `O=C(NCCc1nc(C(=O)O)cs1)c1ccccc1` was tested. Which survivor count [10] did it give?
**A.** 6 of 6

**Q.** What about the survivor count (dose: 400.0 mg/kg/injection, schedule: Q01DX009 (ip), vehicle: gum acacia) of the same compound?
**A.** 6 of 6

**Q.** With `O=C1C(Cl)CCCCC1Cl` (configuration not stated) as the compound, how does the survivor count (dose: 400.0 mg/kg/injection, schedule: Q01DX009 (ip), vehicle: acetone) read?
**A.** 1 of 6

**Q.** For `O=C(C(Sc1ccccc1)=P(c1ccccc1)(c1ccccc1)c1ccccc1)c1ccccc1`, which survivor count [8] is on record?
**A.** 6 of 6

**Q.** Which T/C (dose: 200.0 mg/kg/injection, schedule: Q04DX002 (ip), vehicle: saline with Tween-80) does the source give for `CC(CO)[CH2][Sn]([c]1ccccc1)([c]1ccccc1)[c]1ccccc1` (configuration not stated) here?
**A.** 125 % of control [2 of 3 alive]

**Q.** How did the survivor count (dose: 25.0 mg/kg/injection, schedule: Q01DX009 (ip), vehicle: Klucel (hydroxypropylcellulose) (HPC)) turn out when `COc1ccc(C(=Nc2ccc(C)cc2)c2ccccc2)cc1` was run?
**A.** 3 of 6

**Q.** What does the source list for `O=C(CI)NCc1ccccc1`?
**A.** survivor count [6]: 2 of 6; survivor count [7]: 0 of 6

**Q.** With `Cc1ccc2c(c1)-c1[nH]c3ccccc3c1CS2` as the compound, how does the survivor count (dose: 400.0 mg/kg/injection, schedule: Q04DX003 (ip), vehicle: acetone) read?
**A.** 0 of 6

**Q.** For `CN(C)N=Nc1cn(C)c(=O)n(C)c1=O`, which T/C (dose: 50.0 mg/kg/injection, schedule: Q04DX003 (ip), vehicle: water) is on record?
**A.** 133 % of control [5 of 6 alive]

**Q.** What about the T/C (dose: 100.0 mg/kg/injection, schedule: Q04DX003 (ip), vehicle: water) of the same compound?
**A.** 133 % of control

**Q.** With `COc1ccc(Nc2cc(N)nc(N)n2)cc1` as the compound, how does the survivor count (dose: 100.0 mg/kg/injection, schedule: Q01DX Z (ip), vehicle: methylcellulose (MC)) read?
**A.** 2 of 6

**Q.** And the survivor count (dose: 200.0 mg/kg/injection, schedule: Q01DX Z (ip), vehicle: methylcellulose (MC))?
**A.** 0 of 6

**Q.** `CC[C@@H](C(=O)[C@@H](C)[C@@H](O)[C@H](C)CCc1ccc(C)c(O)c1C(=O)O)[C@H]1O[C@](CC)([C@H]2CC[C@](O)(CC)[C@H](C)O2)C[C@@H]1C` was tested. Which survivor count (dose: 12.5 mg/kg/injection, schedule: Q01DX009 (ip), vehicle: Klucel (hydroxypropylcellulose) (HPC)) did it give?
**A.** 3 of 6

**Q.** And the survivor count [4]?
**A.** 5 of 6

**Q.** What about the survivor count [5] of the same compound?
**A.** 0 of 6

**Q.** For `CC(C)N(C(=O)Nc1cccc(F)c1)C1CCCCC1`, which survivor count [10] is on record?
**A.** 6 of 6

**Q.** With `N#CCCCSC(=N)N` as the compound, how does the survivor count [3] read?
**A.** 0 of 6

**Q.** `COc1cc(C(=O)N2CCOC23CCN(Cc2ccccc2)CC3)cc(OC)c1OC` was tested. Which survivor count (dose: 400.0 mg/kg/injection, schedule: Q01DX009 (ip), vehicle: saline with Tween-80) did it give?
**A.** 0 of 6

**Q.** Which survivor count [3] does the source give for `CN(C)c1nc(N)c(C#N)c(C#N)c1C#N` here?
**A.** 0 of 4

**Q.** Which results are given for `CCOC(=O)C[n+]1ccccc1/C=C/c1ccc(O)cc1`?
**A.** survivor count (dose: 18.75 mg/kg/injection, schedule: Q01DX001 (ip), vehicle: other): 0 of 6; survivor count (dose: 37.5 mg/kg/injection, schedule: Q01DX001 (ip), vehicle: other): 0 of 6

**Q.** Which results are given for `CN(C)CCNc1cc([N+](=O)[O-])ccc1[N+](=O)[O-]`?
**A.** survivor count [2]: 1 of 4; survivor count [3]: 0 of 4

**Q.** What does the source list for `O=C(CCCN1CCC2(CC1)C(=O)NCN2c1ccccc1)c1cccs1`?
**A.** survivor count (dose: 25.0 mg/kg/injection, schedule: Q04DX003 (ip), vehicle: saline with Tween-80): 2 of 6; survivor count (dose: 100.0 mg/kg/injection, schedule: Q04DX003 (ip), vehicle: saline with Tween-80): 1 of 6; survivor count (dose: 200.0 mg/kg/injection, schedule: Q04DX003 (ip), vehicle: saline with Tween-80): 0 of 6; survivor count [8]: 0 of 6

**Q.** Which results are given for `Brc1cccc[n+]1Cc1ccc(C[n+]2ccccc2Br)cc1`?
**A.** survivor count (dose: 1.55 mg/kg/injection, schedule: Q01DX Z (ip), vehicle: saline): 3 of 6; survivor count (dose: 4.0 mg/kg/injection, schedule: Q01DX Z (ip), vehicle: saline): 2 of 6
